Source: the supplement of paper PMC10849652
The other results are listed elsewhere or left out.

By UniProt entry, the sequences of proteins in these tests, tags left out. Where a name states a change or a piece, a line headed by the entry shows the natural chain unless it says otherwise.
UniProt Q96DX7: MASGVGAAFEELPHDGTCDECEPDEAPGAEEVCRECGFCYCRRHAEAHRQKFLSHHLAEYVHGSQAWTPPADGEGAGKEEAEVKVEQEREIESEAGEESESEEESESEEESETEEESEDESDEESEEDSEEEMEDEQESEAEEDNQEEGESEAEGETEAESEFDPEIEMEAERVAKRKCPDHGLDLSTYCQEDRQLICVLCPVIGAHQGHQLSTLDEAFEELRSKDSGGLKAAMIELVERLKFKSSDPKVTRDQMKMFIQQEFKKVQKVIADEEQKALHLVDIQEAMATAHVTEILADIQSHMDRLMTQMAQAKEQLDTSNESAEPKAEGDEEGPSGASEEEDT
UniProt Q9P0U1: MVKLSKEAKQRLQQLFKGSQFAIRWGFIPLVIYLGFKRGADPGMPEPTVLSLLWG
UniProt P49815: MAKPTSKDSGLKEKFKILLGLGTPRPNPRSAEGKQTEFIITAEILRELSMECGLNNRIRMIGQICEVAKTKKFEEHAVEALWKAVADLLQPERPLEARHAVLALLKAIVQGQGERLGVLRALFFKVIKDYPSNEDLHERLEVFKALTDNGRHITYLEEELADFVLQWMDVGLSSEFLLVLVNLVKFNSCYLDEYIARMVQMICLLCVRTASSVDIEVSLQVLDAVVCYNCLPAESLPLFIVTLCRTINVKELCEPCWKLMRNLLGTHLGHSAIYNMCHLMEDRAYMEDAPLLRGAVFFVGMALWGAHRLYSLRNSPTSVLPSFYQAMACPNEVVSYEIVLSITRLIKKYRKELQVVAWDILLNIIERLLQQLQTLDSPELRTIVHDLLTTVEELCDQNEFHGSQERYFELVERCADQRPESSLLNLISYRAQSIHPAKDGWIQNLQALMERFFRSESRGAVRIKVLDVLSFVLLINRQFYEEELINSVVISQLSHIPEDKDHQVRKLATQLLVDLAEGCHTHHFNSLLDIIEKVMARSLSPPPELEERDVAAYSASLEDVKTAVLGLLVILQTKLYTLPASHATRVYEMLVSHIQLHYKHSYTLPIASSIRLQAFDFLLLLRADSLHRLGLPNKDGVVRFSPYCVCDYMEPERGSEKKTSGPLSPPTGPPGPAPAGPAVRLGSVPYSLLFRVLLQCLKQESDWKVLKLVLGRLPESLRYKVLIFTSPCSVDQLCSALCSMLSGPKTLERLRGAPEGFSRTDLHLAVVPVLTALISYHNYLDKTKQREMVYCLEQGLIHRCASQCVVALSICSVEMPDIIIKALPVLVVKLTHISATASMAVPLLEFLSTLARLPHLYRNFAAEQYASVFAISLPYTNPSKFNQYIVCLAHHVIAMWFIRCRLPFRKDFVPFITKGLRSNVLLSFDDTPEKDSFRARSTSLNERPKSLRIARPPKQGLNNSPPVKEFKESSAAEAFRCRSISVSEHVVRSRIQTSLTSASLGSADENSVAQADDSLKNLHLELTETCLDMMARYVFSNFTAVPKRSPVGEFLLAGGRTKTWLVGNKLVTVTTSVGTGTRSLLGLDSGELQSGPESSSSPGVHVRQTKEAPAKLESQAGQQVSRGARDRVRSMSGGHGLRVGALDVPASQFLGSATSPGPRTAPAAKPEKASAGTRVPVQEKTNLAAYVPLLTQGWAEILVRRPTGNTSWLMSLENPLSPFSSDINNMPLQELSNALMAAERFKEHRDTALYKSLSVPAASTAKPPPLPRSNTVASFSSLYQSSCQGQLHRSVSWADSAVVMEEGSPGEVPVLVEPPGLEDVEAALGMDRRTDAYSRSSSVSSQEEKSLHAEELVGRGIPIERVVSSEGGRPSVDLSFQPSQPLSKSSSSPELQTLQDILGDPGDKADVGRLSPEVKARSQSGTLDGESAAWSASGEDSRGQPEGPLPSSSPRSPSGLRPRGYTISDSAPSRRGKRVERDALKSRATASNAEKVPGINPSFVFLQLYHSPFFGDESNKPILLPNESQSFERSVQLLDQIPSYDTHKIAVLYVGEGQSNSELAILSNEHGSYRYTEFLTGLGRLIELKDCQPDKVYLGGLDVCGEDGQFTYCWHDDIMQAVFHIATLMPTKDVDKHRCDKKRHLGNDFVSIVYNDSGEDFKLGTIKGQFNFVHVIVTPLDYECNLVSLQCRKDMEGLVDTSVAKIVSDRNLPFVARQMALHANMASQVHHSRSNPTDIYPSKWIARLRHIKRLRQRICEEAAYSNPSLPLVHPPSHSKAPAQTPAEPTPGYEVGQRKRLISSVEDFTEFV
UniProt Q86SZ2: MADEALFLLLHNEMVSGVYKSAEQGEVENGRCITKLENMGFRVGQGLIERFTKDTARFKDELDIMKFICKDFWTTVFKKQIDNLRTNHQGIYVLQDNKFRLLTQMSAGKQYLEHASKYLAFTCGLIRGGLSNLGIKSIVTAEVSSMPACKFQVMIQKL
UniProt Q629K1: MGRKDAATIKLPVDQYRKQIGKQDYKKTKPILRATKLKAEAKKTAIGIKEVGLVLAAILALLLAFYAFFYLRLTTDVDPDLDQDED

Compound: Cc1ccc(C(=O)N(CCCN)[C@@H](c2nc3cc(Cl)ccc3c(=O)n2Cc2ccccc2)C(C)C)cc1 [ispinesib]
Assay: log2 fold change, soluble protein after heating vs DMSO (PISA); higher = thermal stabilisation; K562 cells, 10 uM, 30 min; active = over 0.2 and 3.5 SD of the protein, either way, in both replicates (recomputed)
Method in brief: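 Values are thermal stability changes relative to control samples and are taken from duplicates. They are stated as log2 fold changes. Before quantification by TMTpro 16plex LC-MS/MS with equalised channel sums, K562 cells at 2×10^6 cells/mL were treated with 10 μM compound for 30 min, heated in aliquots for 3 min across 48°C-58°C, pooled, extracted in PBS with 0.5% NP-40 at 4°C, and centrifuged at 21,000xg for 90 min to give the soluble supernatant.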

Row | Target | log2 fold change
1 | TRIM44 (UniProt Q96DX7) | inactive: 0.03
2 | TOMM7 (UniProt Q9P0U1) | inactive: 0.058
3 | TSC2 (UniProt P49815) | inactive: 0.012
4 | TRAPPC6B (UniProt Q86SZ2) | inactive: 0.014
5 | TRIQK (UniProt Q629K1) | inactive: 0.182
